# Screening data

Source: PubChem BioAssay AID1224904 (Broad Institute, 2016).

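293T-iDUX4 cells carrying a ZSCAN4-driven Gaussia luciferase and a tet-on Italica luciferase control; the gap between the two luminescence signals is read after 24 h.
The test concentration is not given here.
Percent difference between the Gaussia and Italica channels; more negative values mean more selective suppression of the DUX4 reporter, and higher values mean less activity.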

Values are in %.
The controls that fix the scale are not given here.
Common to all entries: measured here: selective DUX4 reporter inhibition.
This is a side read-out of the assay, for part of the compounds, not drawn at random.

With Fc1cccc(-c2ccc(C3[C@@H]4CN(Cc5ccccc5F)C[C@H]3N4)cc2)c1 (stereo not given in full) the assay gave Gaussia minus Italica difference -6.204%.
With Cc1cccc(S(=O)(=O)N(C)C[C@@H]2OCc3ccccc3-c3c(n(C)c4ccccc34)C(=O)N([C@@H](C)CO)C[C@@H]2C)c1 the assay gave Gaussia minus Italica difference -2.272%.
With COc1ccc(NC(=O)N[C@H]2CC[C@@H](CCNS(=O)(=O)c3cccc(Cl)c3)O[C@H]2CO)cc1 the assay gave Gaussia minus Italica difference -6.957%.
With COc1ccc2c3c(n(C)c2c1)[C@H](CO)N(C(C)=O)CC31CN(Cc2ccccc2OC)C1 the assay gave Gaussia minus Italica difference 8.994%.
With O=S(=O)(c1ccccc1F)N1CC[C@@H]2[C@H](CO)Nc3ccc(-c4cccc(F)c4)cc3[C@@H]21 the assay gave Gaussia minus Italica difference -7.164%.
With O=C(c1ccc2c(c1)OCO2)N1C[C@@H]2N[C@H](C1)C2c1ccc(-c2ccncc2)cc1 (stereo not given in full) the assay gave Gaussia minus Italica difference -11.48%.
With O=C(C[C@@H]1CC[C@@H]2[C@H](COC[C@H](O)CN2Cc2ccc(Oc3ccccc3)cc2)O1)N1CCOCC1 the assay gave Gaussia minus Italica difference -3.549%.
With O=C(Nc1cccc(F)c1)N1CCCCN2[C@H](CO)[C@@H](c3ccc(C#CC4CC4)cc3)[C@H]2C1 the assay gave Gaussia minus Italica difference 4.262%.
With O=C(c1ccccn1)N1CC2(C1)[C@H](c1ccccc1)[C@@H](CO)N2Cc1ccc(Cl)cc1 the assay gave Gaussia minus Italica difference -4.043%.
With Fc1ccc(-c2ccc(C3[C@@H]4CN(Cc5cccc(F)c5)C[C@H]3N4)cc2)cc1 (stereo not given in full) the assay gave Gaussia minus Italica difference 10.18%.
With C[C@H](CO)N1C[C@H](C)[C@@H](CN(C)C(=O)NC2CCCCC2)OCCCC[C@H](C)Oc2ccc(NC(=O)Cc3ccccc3)cc2C1=O the assay gave Gaussia minus Italica difference 4.216%.
With COc1ccc2c3c(n(C)c2c1)[C@H](CO)N(Cc1ccccc1Cl)CC31CN(C(=O)CN(C)C)C1 the assay gave Gaussia minus Italica difference 3.335%.
With O=C(Nc1ccc(-c2ccccc2)cc1)[C@@H]1[C@@H](CO)[C@@H]2Cn3c(cccc3=O)[C@@H]2N1CC1CCCC1 the assay gave Gaussia minus Italica difference 2.913%.
With COc1ccc2c3c([nH]c2c1)[C@@H](CO)N(C(=O)c1ccccc1)CC31CN(S(=O)(=O)c2cccs2)C1 the assay gave Gaussia minus Italica difference 13.82%.
With O=C(O)[C@@H]1[C@@H](CO)[C@@H]2Cn3c(ccc(/C=C/c4ccccc4)c3=O)[C@@H]2N1C(=O)C1CCCC1 the assay gave Gaussia minus Italica difference -11.35%.
With OC[C@H]1[C@@H](c2ccc(-c3ccc(F)cc3)cc2)[C@@H]2CN(Cc3ccncc3)CCCCN12 the assay gave Gaussia minus Italica difference -8.903%.
With Cc1cccc(-c2ccc([C@@H]3[C@@H](CO)N4CCCCN(S(=O)(=O)c5ccccc5F)C[C@H]34)cc2)c1 the assay gave Gaussia minus Italica difference -2.195%.
With CN1c2ccc(-c3cccc(C#N)c3)cc2[C@@H]2[C@@H](CCN2C(=O)Nc2cc(F)ccc2F)[C@@H]1CO the assay gave Gaussia minus Italica difference 11.35%.
With COc1cccc(S(=O)(=O)Nc2ccc3c(c2)[C@H]2C[C@@H](CC(=O)N[C@@H](C)c4ccccc4)O[C@H](CO)[C@H]2O3)c1 the assay gave Gaussia minus Italica difference -3.355%.
With Cc1ccc(S(=O)(=O)N(C)C[C@@H]2OCCCC[C@H](C)Oc3ccc(NC(=O)C4CCCCC4)cc3C(=O)N([C@@H](C)CO)C[C@@H]2C)cc1 the assay gave Gaussia minus Italica difference 7.171%.
With C[C@H](CO)N1C[C@H](C)[C@H](CN(C)S(=O)(=O)c2ccccc2F)OCc2ccccc2-c2ccccc2C1=O the assay gave Gaussia minus Italica difference -15.53%.
With COc1ccc2c3c([nH]c2c1)[C@H](CO)N(Cc1ccccc1)CC31CN(C(C)=O)C1 the assay gave Gaussia minus Italica difference 0.07504%.
With CS(=O)(=O)Nc1ccc2c(c1)[C@@H]1C[C@@H](CC(=O)NCc3ccc(Cl)cc3)O[C@@H](CO)[C@@H]1O2 the assay gave Gaussia minus Italica difference -11.5%.
With OC[C@@H]1[C@H](c2ccccc2)C2(CN(Cc3ccccc3F)C2)N1Cc1ccccc1F the assay gave Gaussia minus Italica difference -14.1%.
With O=C(C[C@@H]1CC[C@H]2[C@@H](COC[C@@H](O)CN2Cc2cc(F)ccc2F)O1)N[C@H]1CCN(Cc2ccccc2)C1 the assay gave Gaussia minus Italica difference -11.59%.
With Cc1ccccc1-c1ccc([C@@H]2[C@H](CO)N3CCCCN(C(=O)NC4CCCC4)C[C@@H]23)cc1 the assay gave Gaussia minus Italica difference -5.621%.
With COc1ccc2c3c(n(C)c2c1)[C@H](CO)N(C(=O)Nc1cccc(F)c1)CC31CN(Cc2nccs2)C1 the assay gave Gaussia minus Italica difference -4.426%.
With N#Cc1ccc(-c2ccc3c(c2)[C@H]2[C@H](CCN2S(=O)(=O)c2cccc(F)c2)[C@H](CO)N3)cc1 the assay gave Gaussia minus Italica difference -1.183%.
With O=C(Cc1ccccn1)N1CCCCN2[C@H](CO)[C@@H](c3ccc(C#Cc4ccccc4)cc3)[C@@H]2C1 the assay gave Gaussia minus Italica difference 11.93%.
With O=C(c1ccc2c(c1)OCO2)N1CC(=O)N2[C@H](C1)[C@H](c1ccc(C#Cc3ccccc3)cc1)[C@@H]2CO the assay gave Gaussia minus Italica difference -1.206%.
With COc1ccc2c3c([nH]c2c1)[C@H](CO)N(CC1CC1)CC31CN(C(=O)c2ccc(F)cc2)C1 the assay gave Gaussia minus Italica difference -9.137%.
With C[C@H]1CN([C@@H](C)CO)C(=O)c2c(c3ccccc3n2C)-c2ccccc2CO[C@H]1CN(C)C(=O)NC1CCCCC1 the assay gave Gaussia minus Italica difference 9.825%.
With Cc1cccc(S(=O)(=O)N2C[C@@H]3N[C@H](C2)C3c2ccc(-c3cccc(C(=O)N(C)C)c3)cc2)c1 (stereo not given in full) the assay gave Gaussia minus Italica difference -8.371%.
With COc1cccc(-c2ccc3c(c2)[C@H]2[C@H](CCN2Cc2ccccc2OC)[C@H](CO)N3)c1 the assay gave Gaussia minus Italica difference -11.45%.

For reference, 4 entries once more:

- COc1ccc2c3c(n(C)c2c1)[C@H](CO)N(C(C)=O)CC31CN(Cc2ccccc2OC)C1 : Gaussia minus Italica difference 8.994%
- O=C(C[C@@H]1CC[C@H]2[C@@H](COC[C@@H](O)CN2Cc2cc(F)ccc2F)O1)N[C@H]1CCN(Cc2ccccc2)C1 : Gaussia minus Italica difference -11.59%
- C[C@H](CO)N1C[C@H](C)[C@@H](CN(C)C(=O)NC2CCCCC2)OCCCC[C@H](C)Oc2ccc(NC(=O)Cc3ccccc3)cc2C1=O : Gaussia minus Italica difference 4.216%
- O=C(C[C@@H]1CC[C@@H]2[C@H](COC[C@H](O)CN2Cc2ccc(Oc3ccccc3)cc2)O1)N1CCOCC1 : Gaussia minus Italica difference -3.549%